This note sets out measurements from PMC10180636.

Amino acid sequences for entries named in this document (tags omitted).
UniProt Q8IBZ0: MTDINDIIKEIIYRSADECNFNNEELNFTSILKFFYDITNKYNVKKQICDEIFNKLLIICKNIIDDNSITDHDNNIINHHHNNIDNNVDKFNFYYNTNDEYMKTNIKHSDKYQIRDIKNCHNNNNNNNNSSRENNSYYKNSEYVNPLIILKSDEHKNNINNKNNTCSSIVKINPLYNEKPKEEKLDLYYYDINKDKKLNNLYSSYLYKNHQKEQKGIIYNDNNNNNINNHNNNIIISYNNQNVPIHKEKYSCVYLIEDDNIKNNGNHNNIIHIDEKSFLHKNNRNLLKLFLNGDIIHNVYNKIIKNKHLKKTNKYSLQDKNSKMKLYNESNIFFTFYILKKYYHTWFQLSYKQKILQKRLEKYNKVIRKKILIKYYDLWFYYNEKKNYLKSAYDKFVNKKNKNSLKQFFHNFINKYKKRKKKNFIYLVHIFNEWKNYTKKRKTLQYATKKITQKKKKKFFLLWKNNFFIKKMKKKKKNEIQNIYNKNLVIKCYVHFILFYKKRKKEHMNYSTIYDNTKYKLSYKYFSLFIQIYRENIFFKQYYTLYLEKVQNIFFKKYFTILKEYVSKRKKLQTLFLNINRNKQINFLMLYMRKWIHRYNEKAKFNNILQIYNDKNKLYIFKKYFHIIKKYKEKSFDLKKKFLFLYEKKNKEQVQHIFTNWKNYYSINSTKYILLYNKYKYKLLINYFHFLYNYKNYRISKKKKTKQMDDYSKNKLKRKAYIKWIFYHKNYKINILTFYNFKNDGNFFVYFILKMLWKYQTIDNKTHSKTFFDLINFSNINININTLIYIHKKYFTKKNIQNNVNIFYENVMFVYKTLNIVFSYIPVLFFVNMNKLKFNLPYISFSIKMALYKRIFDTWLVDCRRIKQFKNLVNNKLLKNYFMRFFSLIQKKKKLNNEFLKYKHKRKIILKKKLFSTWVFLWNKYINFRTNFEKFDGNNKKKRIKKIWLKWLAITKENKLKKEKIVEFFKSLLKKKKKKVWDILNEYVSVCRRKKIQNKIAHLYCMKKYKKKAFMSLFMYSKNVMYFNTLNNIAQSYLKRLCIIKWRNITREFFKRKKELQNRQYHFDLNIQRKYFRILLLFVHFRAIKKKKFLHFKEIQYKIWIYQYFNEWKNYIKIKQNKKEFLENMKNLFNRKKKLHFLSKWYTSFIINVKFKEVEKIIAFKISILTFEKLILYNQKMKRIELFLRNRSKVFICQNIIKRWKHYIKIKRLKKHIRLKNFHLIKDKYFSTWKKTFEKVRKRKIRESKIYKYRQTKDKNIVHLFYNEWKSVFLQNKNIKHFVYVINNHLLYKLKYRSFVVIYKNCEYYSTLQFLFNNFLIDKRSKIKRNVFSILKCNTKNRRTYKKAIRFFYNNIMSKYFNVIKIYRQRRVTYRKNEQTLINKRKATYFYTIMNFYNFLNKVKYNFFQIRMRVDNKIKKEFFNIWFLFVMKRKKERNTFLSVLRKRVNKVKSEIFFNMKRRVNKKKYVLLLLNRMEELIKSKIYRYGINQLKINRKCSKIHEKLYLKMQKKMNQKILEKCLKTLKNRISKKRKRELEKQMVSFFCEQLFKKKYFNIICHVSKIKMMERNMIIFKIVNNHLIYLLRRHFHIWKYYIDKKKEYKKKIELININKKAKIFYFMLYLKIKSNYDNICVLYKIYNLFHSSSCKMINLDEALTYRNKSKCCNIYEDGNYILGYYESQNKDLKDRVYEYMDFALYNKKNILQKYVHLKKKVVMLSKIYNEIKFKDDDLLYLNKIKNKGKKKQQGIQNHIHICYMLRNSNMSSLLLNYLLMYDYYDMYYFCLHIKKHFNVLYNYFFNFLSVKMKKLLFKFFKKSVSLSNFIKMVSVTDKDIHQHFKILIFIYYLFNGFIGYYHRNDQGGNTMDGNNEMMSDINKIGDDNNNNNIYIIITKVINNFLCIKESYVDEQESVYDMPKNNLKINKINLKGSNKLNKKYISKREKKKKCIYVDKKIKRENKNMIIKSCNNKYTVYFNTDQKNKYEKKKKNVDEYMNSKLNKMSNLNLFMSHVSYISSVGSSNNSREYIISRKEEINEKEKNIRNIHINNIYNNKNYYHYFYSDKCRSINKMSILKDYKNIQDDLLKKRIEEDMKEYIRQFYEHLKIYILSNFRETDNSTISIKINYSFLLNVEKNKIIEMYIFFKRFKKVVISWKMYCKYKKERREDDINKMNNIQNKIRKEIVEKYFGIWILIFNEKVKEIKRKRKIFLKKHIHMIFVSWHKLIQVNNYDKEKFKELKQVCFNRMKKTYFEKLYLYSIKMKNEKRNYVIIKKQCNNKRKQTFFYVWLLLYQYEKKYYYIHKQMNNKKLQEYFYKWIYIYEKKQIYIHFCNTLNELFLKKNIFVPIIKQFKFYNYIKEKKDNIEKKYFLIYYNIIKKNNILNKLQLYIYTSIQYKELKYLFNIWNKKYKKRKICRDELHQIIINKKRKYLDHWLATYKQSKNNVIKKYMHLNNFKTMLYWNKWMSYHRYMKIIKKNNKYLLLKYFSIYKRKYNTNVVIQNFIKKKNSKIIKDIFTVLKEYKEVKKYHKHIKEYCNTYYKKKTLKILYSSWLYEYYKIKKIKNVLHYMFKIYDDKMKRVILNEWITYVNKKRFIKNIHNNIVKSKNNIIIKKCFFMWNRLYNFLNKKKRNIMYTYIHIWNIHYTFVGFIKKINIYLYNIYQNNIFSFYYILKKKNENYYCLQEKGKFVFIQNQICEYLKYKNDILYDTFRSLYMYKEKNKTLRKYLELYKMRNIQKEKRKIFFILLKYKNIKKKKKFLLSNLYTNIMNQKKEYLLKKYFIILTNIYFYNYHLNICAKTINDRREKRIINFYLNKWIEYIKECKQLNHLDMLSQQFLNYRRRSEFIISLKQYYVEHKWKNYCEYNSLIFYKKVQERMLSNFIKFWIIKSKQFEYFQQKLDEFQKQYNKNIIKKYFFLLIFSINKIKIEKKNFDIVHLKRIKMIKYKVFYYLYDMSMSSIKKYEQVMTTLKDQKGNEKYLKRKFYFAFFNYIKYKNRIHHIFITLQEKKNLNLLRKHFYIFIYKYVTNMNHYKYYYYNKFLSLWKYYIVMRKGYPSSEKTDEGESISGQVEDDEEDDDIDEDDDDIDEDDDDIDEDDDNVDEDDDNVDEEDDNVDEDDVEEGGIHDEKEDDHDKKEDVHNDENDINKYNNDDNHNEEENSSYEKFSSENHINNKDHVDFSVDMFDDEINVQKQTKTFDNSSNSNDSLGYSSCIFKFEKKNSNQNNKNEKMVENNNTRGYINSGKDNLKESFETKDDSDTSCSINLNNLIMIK

No constants are given. Whether binding was seen depends on the method and setting. Binding seen in cells or lysates may run through a third protein. A yes stands for co-enrichment or nearness to the bait. Other partners may have been found.

In this assay the target is PfCen1-GFP (P. falciparum) (UniProt Q8I272). Briefly: affinity purification with mass spectrometry; mouse anti-GFP antibody on Protein G Dynabeads, RIPA lysate of PfCen1-GFP schizonts, overnight at 4°C, no protein crosslinking; compared with GFP control pulldowns of a previous study.

In the case of “Sfi1-like protein (PfSlp), PF3D7_0710000 (from UniProt Q8IBZ0 1-3267)”, the binding entry is recorded as “binds”.
